The target of assay [1] is dystrophin Dp71 (human (endogenous in primary cultured myocytes of patient DMD3)) (UniProt P11532). In words: co-IP; mouse anti-dystrophin (7A10, sc-47760) coupled to Dynabeads M-270 Epoxy; total protein lysate of DMD3-derived primary cultured myocytes, lysis buffer with 0.1% SDS; western blot for dystrophin, ATP5A, VDAC1, COXIV. Background: In western blotting, separated proteins are transferred to a membrane and probed.

By UniProt entry, the sequences of proteins in these tests, tags left out. Where a name states a change or a piece, a line headed by the entry shows the natural chain unless it says otherwise. Chains listed by the source or under a name are the forms on record and can include a tag or linker. Residues count along the entry.
dystrophin Dp71 (human (endogenous in primary cultured myocytes of patient DMD3)) (P11532-7, form named): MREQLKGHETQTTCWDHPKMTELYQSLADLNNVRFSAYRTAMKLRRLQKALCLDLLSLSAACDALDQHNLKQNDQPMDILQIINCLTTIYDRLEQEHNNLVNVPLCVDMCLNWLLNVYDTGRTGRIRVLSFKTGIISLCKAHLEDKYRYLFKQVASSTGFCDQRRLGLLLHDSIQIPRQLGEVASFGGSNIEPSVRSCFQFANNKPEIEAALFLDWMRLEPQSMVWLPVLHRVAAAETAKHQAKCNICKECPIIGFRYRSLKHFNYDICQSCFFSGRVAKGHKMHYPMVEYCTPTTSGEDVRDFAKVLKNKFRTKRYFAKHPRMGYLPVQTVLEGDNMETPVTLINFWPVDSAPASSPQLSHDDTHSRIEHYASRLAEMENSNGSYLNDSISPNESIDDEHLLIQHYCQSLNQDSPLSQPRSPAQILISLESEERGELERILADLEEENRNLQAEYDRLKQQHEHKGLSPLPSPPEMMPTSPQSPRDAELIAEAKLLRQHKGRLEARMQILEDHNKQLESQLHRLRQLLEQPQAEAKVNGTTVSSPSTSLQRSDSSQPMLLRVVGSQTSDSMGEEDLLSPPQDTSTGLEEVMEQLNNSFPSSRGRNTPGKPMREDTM
UniProt P25705, residues 44-553: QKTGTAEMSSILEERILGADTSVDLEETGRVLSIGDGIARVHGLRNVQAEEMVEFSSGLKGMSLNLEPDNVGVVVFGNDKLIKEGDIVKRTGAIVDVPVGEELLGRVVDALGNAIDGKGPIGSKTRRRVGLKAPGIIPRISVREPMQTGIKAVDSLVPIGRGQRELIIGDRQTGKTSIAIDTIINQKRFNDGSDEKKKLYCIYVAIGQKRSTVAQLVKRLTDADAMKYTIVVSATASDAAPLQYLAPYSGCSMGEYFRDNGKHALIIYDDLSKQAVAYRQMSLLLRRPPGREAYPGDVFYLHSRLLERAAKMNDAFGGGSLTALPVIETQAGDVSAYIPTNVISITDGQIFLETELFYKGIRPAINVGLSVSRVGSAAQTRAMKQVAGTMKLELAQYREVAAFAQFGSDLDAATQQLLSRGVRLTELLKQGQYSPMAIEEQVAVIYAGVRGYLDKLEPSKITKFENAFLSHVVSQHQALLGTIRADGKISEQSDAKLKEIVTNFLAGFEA
UniProt P21796: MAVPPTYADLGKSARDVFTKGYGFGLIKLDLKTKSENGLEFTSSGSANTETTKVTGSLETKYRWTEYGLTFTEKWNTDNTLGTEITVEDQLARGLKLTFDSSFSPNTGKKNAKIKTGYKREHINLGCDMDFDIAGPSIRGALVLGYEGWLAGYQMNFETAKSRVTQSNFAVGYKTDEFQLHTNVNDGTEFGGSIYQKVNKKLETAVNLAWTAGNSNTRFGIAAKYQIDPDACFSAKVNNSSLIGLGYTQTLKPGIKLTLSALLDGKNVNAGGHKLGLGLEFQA

In assay [2] the target is ATP5A (human (endogenous in primary cultured myocytes of patient DMD3)) (UniProt P25705). Nature of the assay: co-IP; reciprocal: mouse anti-ATP5A (ab14748) coupled to Dynabeads M-270 Epoxy; total protein lysate of DMD3-derived primary cultured myocytes, lysis buffer with 0.1% SDS; western blot for dystrophin, ATP5A, VDAC1, COXIV.

These are yes or no findings as the source states them, for the method shown. Binding seen in cells or lysates may run through a third protein. Some results given as binding are weak or reduced against the parent protein; the word gives no strength.

As for ATP5A (from UniProt P25705 44-553), the binding entry in assay [1] was “binds weakly”.
For “dystrophin Dp71 (from UniProt P11532-7 1-617)”, the binding result in assay [2] is reported as “binds weakly”.
As for VDAC1 (from UniProt P21796 1-283), the binding result in assay [1] and in assay [2] was “no binding” throughout.

The values above are taken from publication PMC8468555.
